According to publication PMC7333476:
No constants are given. Whether binding was seen depends on the method and setting. In cells and extracts the contact can be indirect. Some binding calls cover weakened binding; strength is not graded here.

Chains of the proteins cited; added tags and fusions are not shown. Lines headed by an entry give the natural chain unless they say otherwise; changes in a name come on top. A line that says so, or that is headed by a name, gives the form on record, which may keep a tag or linker.
UniProt P01106: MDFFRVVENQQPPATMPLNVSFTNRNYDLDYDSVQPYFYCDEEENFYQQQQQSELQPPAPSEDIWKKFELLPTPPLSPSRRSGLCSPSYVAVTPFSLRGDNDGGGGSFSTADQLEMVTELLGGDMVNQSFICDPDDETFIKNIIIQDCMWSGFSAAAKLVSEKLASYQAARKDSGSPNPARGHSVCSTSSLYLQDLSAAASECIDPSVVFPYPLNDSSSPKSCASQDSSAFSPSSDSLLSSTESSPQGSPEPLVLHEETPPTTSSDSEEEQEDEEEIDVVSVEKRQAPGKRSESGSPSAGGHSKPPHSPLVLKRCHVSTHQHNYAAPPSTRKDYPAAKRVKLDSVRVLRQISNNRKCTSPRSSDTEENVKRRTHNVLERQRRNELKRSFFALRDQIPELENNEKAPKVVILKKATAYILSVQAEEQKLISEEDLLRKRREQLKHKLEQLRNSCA
UniProt Q969H0: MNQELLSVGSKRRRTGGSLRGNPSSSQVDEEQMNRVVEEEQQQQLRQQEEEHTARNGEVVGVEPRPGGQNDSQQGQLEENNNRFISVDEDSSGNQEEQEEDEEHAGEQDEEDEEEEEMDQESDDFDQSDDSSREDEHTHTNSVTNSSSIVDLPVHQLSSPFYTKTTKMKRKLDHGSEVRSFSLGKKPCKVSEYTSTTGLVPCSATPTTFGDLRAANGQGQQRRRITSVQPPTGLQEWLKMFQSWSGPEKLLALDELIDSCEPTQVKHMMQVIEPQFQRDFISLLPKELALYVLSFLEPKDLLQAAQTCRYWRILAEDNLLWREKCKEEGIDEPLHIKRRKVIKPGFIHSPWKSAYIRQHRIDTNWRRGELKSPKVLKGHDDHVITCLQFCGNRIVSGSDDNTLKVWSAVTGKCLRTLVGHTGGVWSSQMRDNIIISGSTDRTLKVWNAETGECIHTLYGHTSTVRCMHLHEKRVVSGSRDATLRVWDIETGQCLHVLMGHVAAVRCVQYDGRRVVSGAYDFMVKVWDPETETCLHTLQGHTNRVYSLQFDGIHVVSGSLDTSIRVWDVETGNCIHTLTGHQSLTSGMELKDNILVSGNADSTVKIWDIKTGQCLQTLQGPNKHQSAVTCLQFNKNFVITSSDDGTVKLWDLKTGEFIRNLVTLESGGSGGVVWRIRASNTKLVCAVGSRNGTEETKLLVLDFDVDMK
Venus-Flag (VF)-tagged NSD3S (Q9BZ95-3, form named): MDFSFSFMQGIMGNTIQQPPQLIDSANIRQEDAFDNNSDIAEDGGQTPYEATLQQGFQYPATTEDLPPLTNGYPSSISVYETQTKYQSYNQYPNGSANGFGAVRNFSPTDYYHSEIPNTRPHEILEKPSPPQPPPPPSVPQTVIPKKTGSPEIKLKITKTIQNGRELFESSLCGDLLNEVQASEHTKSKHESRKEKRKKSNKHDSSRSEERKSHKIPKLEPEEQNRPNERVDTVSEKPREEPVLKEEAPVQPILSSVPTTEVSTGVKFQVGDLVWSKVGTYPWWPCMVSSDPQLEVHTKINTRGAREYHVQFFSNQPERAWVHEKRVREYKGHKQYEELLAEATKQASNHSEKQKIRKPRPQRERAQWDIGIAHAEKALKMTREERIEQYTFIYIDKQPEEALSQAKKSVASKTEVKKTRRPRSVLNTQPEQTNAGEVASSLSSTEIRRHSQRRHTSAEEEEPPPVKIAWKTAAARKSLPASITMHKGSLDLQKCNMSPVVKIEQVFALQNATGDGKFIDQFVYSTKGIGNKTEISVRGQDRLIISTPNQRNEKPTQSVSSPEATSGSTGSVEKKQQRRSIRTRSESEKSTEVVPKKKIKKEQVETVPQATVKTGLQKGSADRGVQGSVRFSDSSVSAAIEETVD
UniProt P49841: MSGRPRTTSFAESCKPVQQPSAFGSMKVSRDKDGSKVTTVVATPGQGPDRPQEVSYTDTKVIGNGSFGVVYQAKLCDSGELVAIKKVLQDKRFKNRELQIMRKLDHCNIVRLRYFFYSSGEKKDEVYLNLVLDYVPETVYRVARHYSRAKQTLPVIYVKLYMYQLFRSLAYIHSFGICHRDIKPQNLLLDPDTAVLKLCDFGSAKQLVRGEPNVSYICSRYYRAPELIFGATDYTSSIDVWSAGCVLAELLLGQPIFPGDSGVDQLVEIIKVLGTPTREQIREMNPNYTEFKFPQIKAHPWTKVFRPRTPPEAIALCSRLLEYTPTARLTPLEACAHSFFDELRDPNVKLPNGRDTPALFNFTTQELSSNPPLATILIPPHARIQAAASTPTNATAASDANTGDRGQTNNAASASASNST

target: MYC, endogenous (human (endogenous in HEK293T)) (UniProt P01106); test: co-IP; endogenous MYC immunoprecipitated with MYC antibody (sc-40) overnight at 4°C and protein A/G agarose from HEK293T lysate (0.25% Triton X-100 lysis buffer); with overexpressed VF-vector, VF-NSD3S or VF-NSD3SΔ15

| binding | Substance |
| --- | --- |
| binds | F-box and WD repeat domain containing 7 (FBXW7), endogenous (from UniProt Q969H0 1-707) |
| binds | Venus-Flag (VF)-tagged NSD3S (from UniProt Q9BZ95-3 1-645) |
| binds | glycogen synthase kinase 3β (GSK3β), endogenous (from UniProt P49841 1-420) (enzyme) |
